According to patent publication US20190125745A1, “TREATMENT AND DIAGNOSIS OF CANCER” (Rgenix, Inc., priority 2014, published 2019):
For at least one compound, name, drawing or mass did not settle the structure.

Tested on: B16F10 parental and DTIC-resistant cells
Test: Tumor growth by DTIC-sensitive and DTIC-resistant B16F10 cells
Type: in vivo, mouse
Conditions: 50 mg/kg, i.p., daily

Compound: CN(C)/N=N/c1[nH]cnc1C(N)=O [dacarbazine]
- growth of the DTIC-sensitive parental B16F10 line: significantly suppressed
